# Experimental data reported in the supplement of paper PMC8728848.
# The other results are listed elsewhere or left out.
# B1: OS9-MRH (Homo sapiens), Q13438 (protein)
# chain: IPELLSPMRDAPCLLKTKDWWTYEFCYGRHIQQYHMEDSEIKGEVLYLGYYQSAFDWDDETAKASKQHRLKRYHSQTYGNGSKCDLNGRPREAEVRFLCDEGAGISGDYIDRVDEPLSCSYVLTIRTPRLCPHPLLRPPPSAAPQAI
# Legend:
# Assay in all cases: glycan array binding signal (z-score within array); higher = stronger binding
# Conditions in all cases: glycan notation: IUPAC condensed, linker removed
# [1] = target: Neu5Ac(a2-6)GlcNAc(b1-4)GlcNAc(b1-4)GlcNAc
# How it was run: (§1)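 Arrays were curated from the Consortium for Functional Glycomics database, 3228 in total, and kept only where the protein sequence was available. Binding is expressed as a within-array Z-score. This score was averaged across arrays of the same protein sequence at different concentrations or buffers and across linkers, and negative values can be read as non-binding.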
# Neu5Ac(a2-8)Neu5Ac = target: Neu5Ac(a2-8)Neu5Ac
# How it was run: as §1
# [2] = target: Neu5Ac(a2-8)Neu5Ac(a2-3)Gal(b1-3)GalNAc(b1-4)[Neu5Ac(a2-3)]Gal(b1-4)Glc
# How it was run: as §1
# [3] = target: Neu5Ac(a2-8)Neu5Ac(a2-3)Gal(b1-3)GalNAc(b1-4)[Neu5Ac(a2-8)Neu5Ac(a2-3)]Gal(b1-4)Glc
# How it was run: as §1
# [4] = target: Neu5Ac(a2-8)Neu5Ac(a2-3)Gal(b1-4)Glc
# How it was run: as §1
# [5] = target: Neu5Ac(a2-8)Neu5Ac(a2-3)Gal(b1-4)GlcNAc
# How it was run: as §1
# [6] = target: Neu5Ac(a2-8)Neu5Ac(a2-3)[Gal(b1-3)GalNAc(b1-4)]Gal(b1-4)Glc
# How it was run: as §1
# [7] = target: Neu5Ac(a2-8)Neu5Ac(a2-3)[GalNAc(b1-4)]Gal(b1-4)Glc
# How it was run: as §1
# [8] = target: Neu5Ac(a2-8)Neu5Ac(a2-8)Neu5Ac
# How it was run: as §1
# [9] = target: Neu5Ac(a2-8)Neu5Ac(a2-8)Neu5Ac(a2-3)Gal(b1-4)Glc
# How it was run: as §1
# [10] = target: Neu5Ac(a2-8)Neu5Ac(a2-8)Neu5Ac(a2-3)[Gal(b1-3)GalNAc(b1-4)]Gal(b1-4)Glc
# How it was run: as §1
# [11] = target: Neu5Ac(a2-8)Neu5Ac(a2-8)Neu5Ac(a2-3)[GalNAc(b1-4)]Gal(b1-4)Glc
# How it was run: as §1
# [12] = target: Neu5Ac(a2-8)Neu5Ac(a2-8)Neu5Ac(a2-8)Neu5Ac(a2-3)[GalNAc(b1-4)]Gal(b1-4)Glc
# How it was run: as §1
# [13] = target: Neu5Ac(a2-8)Neu5Gc(a2-3)Gal(b1-4)GlcNAc
# How it was run: as §1
# [14] = target: Neu5Ac(b2-6)Gal(b1-4)GlcNAc
# How it was run: as §1
# Neu5Ac(b2-6)GalNAc = target: Neu5Ac(b2-6)GalNAc
# How it was run: as §1
# [15] = target: Neu5Ac9Ac(a2-3)Gal(b1-3)GlcNAc
# How it was run: as §1
# [16] = target: Neu5Ac9Ac(a2-3)Gal(b1-4)GlcNAc
# How it was run: as §1
# [17] = target: Neu5Ac9Ac(a2-6)Gal(b1-4)GlcNAc
# How it was run: as §1
# [18] = target: Neu5Gc(a2-3)Gal(b1-3)GlcNAc
# How it was run: as §1
# [19] = target: Neu5Gc(a2-3)Gal(b1-3)[Fuc(a1-4)]GlcNAc
# How it was run: as §1
# Neu5Gc(a2-3)Gal(b1-4)Glc = target: Neu5Gc(a2-3)Gal(b1-4)Glc
# How it was run: as §1
# [20] = target: Neu5Gc(a2-3)Gal(b1-4)GlcNAc
# How it was run: as §1
# [21] = target: Neu5Gc(a2-3)Gal(b1-4)GlcNAc(b1-3)Gal(b1-4)GlcNAc(b1-2)Man(a1-3)[Neu5Gc(a2-3)Gal(b1-4)GlcNAc(b1-3)Gal(b1-4)GlcNAc(b1-2)Man(a1-6)]Man(b1-4)GlcNAc(b1-4)GlcNAc
# How it was run: as §1
# [22] = target: Neu5Gc(a2-3)Gal(b1-4)[Fuc(a1-3)]GlcNAc
# How it was run: as §1
# [23] = target: Neu5Gc(a2-6)Gal(b1-4)GlcNAc
# How it was run: as §1
# Neu5Gc(a2-6)GalNAc = target: Neu5Gc(a2-6)GalNAc
# How it was run: as §1
# [24] = target: Neu5Gc(a2-8)Neu5Ac(a2-3)Gal(b1-4)GlcNAc
# How it was run: as §1
# [25] = target: Neu5Gc(a2-8)Neu5Gc(a2-3)Gal(b1-4)GlcNAc
# How it was run: as §1
# [26] = target: Neu5Gc(a2-8)Neu5Gc(a2-3)Gal(b1-4)GlcNAc(b1-3)Gal(b1-4)GlcNAc
# How it was run: as §1
# [27] = target: Neu5Gc(a2-8)Neu5Gc(a2-6)Gal(b1-4)GlcNAc
# How it was run: as §1
# [28] = target: Neu5Gc(b2-6)Gal(b1-4)GlcNAc
# How it was run: as §1
binder,measurement,setting,value
B1,glycan array binding signal (z-score),[1],0.725
same,glycan array binding signal (z-score),Neu5Ac(a2-8)Neu5Ac,-1.08
same,glycan array binding signal (z-score),[2],1.84
same,glycan array binding signal (z-score),[3],-0.356
same,glycan array binding signal (z-score),[4],0.038
same,glycan array binding signal (z-score),[5],-0.225
same,glycan array binding signal (z-score),[6],-0.02
same,glycan array binding signal (z-score),[7],0.717
same,glycan array binding signal (z-score),[8],0.308
same,glycan array binding signal (z-score),[9],0.1
same,glycan array binding signal (z-score),[10],-0.657
same,glycan array binding signal (z-score),[11],-1.22
same,glycan array binding signal (z-score),[12],-0.452
same,glycan array binding signal (z-score),[13],0.36
same,glycan array binding signal (z-score),[14],0.205
same,glycan array binding signal (z-score),Neu5Ac(b2-6)GalNAc,-0.664
same,glycan array binding signal (z-score),[15],-0.055
same,glycan array binding signal (z-score),[16],-0.03
same,glycan array binding signal (z-score),[17],-1.41
same,glycan array binding signal (z-score),[18],-1.05
same,glycan array binding signal (z-score),[19],0.763
same,glycan array binding signal (z-score),Neu5Gc(a2-3)Gal(b1-4)Glc,-0.393
same,glycan array binding signal (z-score),[20],0.032
same,glycan array binding signal (z-score),[21],-0.52
same,glycan array binding signal (z-score),[22],-0.22
same,glycan array binding signal (z-score),[23],1.49
same,glycan array binding signal (z-score),Neu5Gc(a2-6)GalNAc,1.14
same,glycan array binding signal (z-score),[24],1.12
same,glycan array binding signal (z-score),[25],1.77
same,glycan array binding signal (z-score),[26],-0.961
same,glycan array binding signal (z-score),[27],-0.866
same,glycan array binding signal (z-score),[28],-1.24

# A second format for some results above.
binder | measurement | setting | value
B1 | glycan array binding signal (z-score) | Neu5Gc(a2-3)Gal(b1-4)Glc | -0.393
same | glycan array binding signal (z-score) | [20] | 0.032
same | glycan array binding signal (z-score) | [21] | -0.52
